These are yes or no findings as the source states them, for the method shown. Some entries that bind do so weakly or less than the wild type.
Target: T1, MBIO-4039 large fragment, SEQ ID NO:2733
T1 sequence: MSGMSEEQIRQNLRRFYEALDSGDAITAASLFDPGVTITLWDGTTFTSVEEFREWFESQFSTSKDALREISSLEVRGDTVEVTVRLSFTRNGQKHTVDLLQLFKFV
Assay: split-luciferase complementation of MBIO-4039 fragments

B1: MBIO-4039 small fragment, SEQ ID NO:2734 (peptide)
peptide: MSGGNRVVAVRVYVNPT
- binding: binds

— patent US20260250737A1, “Engineered Luciferases and Luciferin Substrates” (Monod Bio, Inc., priority 2023, published 2026)
